The list does not hold the whole screen: it gathers tests that were run many times, whatever their T/C, doses with no T/C, and many T/C values between a quarter and a half above the control. Further doses and runs are listed elsewhere. T/C is the treated group as % of the vehicle group. Some entries give survivors of the animals treated and no T/C: the source holds a T/C of zero for them, seemingly a mark for toxic or unscored doses. Some survivor counts are full or nearly so, which does not show that the dose was tolerated: the source hardly ever lists a survival T/C far under the control, and the zero likely stands for such cases as well. Survivors were counted at the toxicity check, usually on the fifth day, unless a day is given; later deaths do not show. Schedule codes are those of the source, taken here to give the interval after Q, in days (D) or hours (H), and the number of doses after X. Some entries hold several experiments; the values are given in rising order. Some molecules as drawn cover several salts, stereoisomers or complexes of the source; a dose is that of the sample tested. Where survival is the endpoint, this PubChem deposit counts one and a half times the control or more as active, and values a quarter to a half above the control carry no call in these data; other NCI protocols may use other cut-offs. Some T/C values carry the count of animals alive at the toxicity check (mostly the fifth day); where none is given, no animal had died by that day.

In this assay the test system is CD2F1 mice, L1210 leukemia ip, survival T/C. The assay is described as follows: NCI In Vivo Anticancer Drug Screen. Data for tumor model L1210 Leukemia (intraperitoneal) in CD2F1 (CDF1) mice. Conditions: higher T/C = longer survival. A digest of the protocol: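 Tumor-bearing mice (transplanted tumor) were split into treated and vehicle control groups, and the measured endpoint of each treated group was divided by that of its vehicle controls.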

The mark [1] stands for this setting: T/C endpoint: mean survival time, dose: 300.0 mg/kg/injection, schedule: Q01DX001 (ip), vehicle: saline.
Where [2] appears, read: T/C endpoint: mean survival time, dose: 200.0 mg/kg/injection, schedule: Q01DX001 (ip), vehicle: saline.
The mark [3] stands for this setting: T/C endpoint: mean survival time, dose: 400.0 mg/kg/injection, schedule: Q01DX001 (ip), vehicle: saline.
[4] abbreviates: T/C endpoint: mean survival time, dose: 400.0 mg/kg/injection, schedule: Q04DX003 (ip), vehicle: saline with Tween-80.
Setting [5] is: T/C endpoint: mean survival time, dose: 400.0 mg/kg/injection, schedule: Q01DX009 (ip), vehicle: saline with Tween-80.
Where [6] appears, read: T/C endpoint: mean survival time, dose: 100.0 mg/kg/injection, schedule: Q01DX001 (ip), vehicle: saline.
[7] abbreviates: T/C endpoint: mean survival time, dose: 150.0 mg/kg/injection, schedule: Q01DX001 (ip), vehicle: other.
[8] abbreviates: T/C endpoint: mean survival time, dose: 300.0 mg/kg/injection, schedule: Q01DX001 (ip), vehicle: other.

Take `CC12CCC3C(CC=C4CC(OC(=N)N)CCC43C)C1CCC2=O` (configuration not stated): under setting [1], the survivor count was 0 of 6.
As to `[O]=[Mo]`, the survivor count was 4 of 6 (T/C endpoint: mean survival time, dose: 200.0 mg/kg/injection, schedule: Q04DX003 (ip), vehicle: saline) and 1 of 6 (T/C endpoint: mean survival time, dose: 400.0 mg/kg/injection, schedule: Q04DX003 (ip), vehicle: saline).
On to `CC1(C)N=C(N)N=C(N)N1c1ccc(OCCCNC(=O)Nc2cccc(S(=O)(=O)F)c2)c(Cl)c1`, for which, where the note is “T/C endpoint: mean survival time, dose: 150.0 mg/kg/injection, schedule: Q01DX009 (ip), vehicle: saline”, the T/C was 138 % of control [5 of 6 alive]. Further, the survivor count (T/C endpoint: mean survival time, dose: 300.0 mg/kg/injection, schedule: Q01DX009 (ip), vehicle: saline) is given as 3 of 6.
As for `COCC1=Nc2c([nH]cnc2=S)NN1`, the survivor count reads like this: (T/C endpoint: mean survival time, dose: 100.0 mg/kg/injection, schedule: Q01DX001 (ip), vehicle: carboxymethylcellulose (CMC)) 0 of 6; (T/C endpoint: mean survival time, dose: 200.0 mg/kg/injection, schedule: Q01DX001 (ip), vehicle: carboxymethylcellulose (CMC)) 0 of 6; (T/C endpoint: mean survival time, dose: 400.0 mg/kg/injection, schedule: Q01DX001 (ip), vehicle: carboxymethylcellulose (CMC)) 0 of 6.
With `O=C(O)CC(O)C(=O)O.[Fe]` (configuration not stated), the survivor count under setting [2] is recorded as 3 of 6 and the survivor count under setting [3] is 1 of 6.
Consider `C/C(CCC(=O)O)=N\NC(N)=O`, for which the survivor count under setting [4] is listed as 6 of 6.
In the case of `O=NN(CCCl)C(=O)NCc1ccc[n+]([O-])c1`, the T/C is, setting by setting: (T/C endpoint: mean survival time, dose: 1.56 mg/kg/injection, schedule: Q01DX001 (ip), vehicle: water) 134 % of control; (T/C endpoint: mean survival time, dose: 3.13 mg/kg/injection, schedule: Q01DX001 (ip), vehicle: water) 139 % of control. For the same compound, the survivor count (T/C endpoint: mean survival time, dose: 50.0 mg/kg/injection, schedule: Q01DX001 (ip), vehicle: water) is 4 of 6 and 6 of 6; the survivor count (T/C endpoint: mean survival time, dose: 100.0 mg/kg/injection, schedule: Q01DX001 (ip), vehicle: water) is 5 of 6.
On to `CCNCc1cc(Nc2cc(C)nc(/N=C(\N)Nc3ccc(Cl)c(Cl)c3)n2)ccc1OC`, for which the survivor count by setting is: (T/C endpoint: mean survival time, dose: 50.0 mg/kg/injection, schedule: Q01DX009 (ip), vehicle: Klucel (hydroxypropylcellulose) (HPC)) 2 of 6; (T/C endpoint: mean survival time, dose: 100.0 mg/kg/injection, schedule: Q01DX009 (ip), vehicle: Klucel (hydroxypropylcellulose) (HPC)) 0 of 6.
`N#CC(/C=C/c1ccccc1)Nc1ccccc1O` (configuration not stated): the survivor count is listed as 2 of 6 (T/C endpoint: mean survival time, dose: 200.0 mg/kg/injection, schedule: Q01DX009 (ip), vehicle: saline with Tween-80) and 0 of 6 under setting [5].
Regarding `CNCC(=O)NC(CO)C(=O)NC(CO)C(=O)NC1C(C(N)=O)OC(n2ccc(N)nc2=O)C(O)C1O` (configuration not stated), the survivor count is 4 of 6 (T/C endpoint: mean survival time, dose: 1.5 mg/kg/injection, schedule: Q01DX005 (ip), vehicle: water); 3 of 6 (T/C endpoint: mean survival time, dose: 3.0 mg/kg/injection, schedule: Q01DX005 (ip), vehicle: water); 3 of 6 (T/C endpoint: mean survival time, dose: 3.13 mg/kg/injection, schedule: Q01DX005 (ip), vehicle: water); 1 of 6 (T/C endpoint: mean survival time, dose: 6.25 mg/kg/injection, schedule: Q01DX005 (ip), vehicle: water); 0 of 6 (T/C endpoint: mean survival time, dose: 12.5 mg/kg/injection, schedule: Q01DX005 (ip), vehicle: water); 0 of 6 (T/C endpoint: mean survival time, dose: 25.0 mg/kg/injection, schedule: Q01DX005 (ip), vehicle: water). For the same compound, under “T/C endpoint: mean survival time, dose: 50.0 mg/kg/injection, schedule: Q01DX005 (ip), vehicle: water”, the survivor count is reported as 0 of 6.
For `NC(CCNCCc1ccccc1)CNCCc1ccccc1` (configuration not stated), the survivor count under setting [1] is reported as 0 of 6.
For the compound `O=C1C=C(O)C(=O)C=C1O`, the survivor count under setting [6] is recorded as 2 of 6, the survivor count under setting [2] is on record as 0 of 6 and the survivor count under setting [3] was 0 of 6.
Take `CCN(CC)CCNC(=O)C(O)C1CCCCC1` (configuration not stated): the survivor count under setting [7] is recorded as 4 of 6 and the survivor count under setting [8] is listed as 0 of 6.
For `CC(C)C[CH2][Pb]([Cl])([CH2]CC(C)C)[CH2]CC(C)C`, the survivor count is, setting by setting: (T/C endpoint: mean survival time, dose: 100.0 mg/kg/injection, schedule: Q04DX003 (ip), vehicle: other) 0 of 6; (T/C endpoint: mean survival time, dose: 200.0 mg/kg/injection, schedule: Q04DX003 (ip), vehicle: other) 0 of 6; (T/C endpoint: mean survival time, dose: 400.0 mg/kg/injection, schedule: Q04DX003 (ip), vehicle: other) 0 of 6.
With `C[S+](C)CCC(N)C(=O)O` (configuration not stated), the survivor count is listed as 0 of 3 (T/C endpoint: median survival time, dose: 100.0 mg/kg/injection, schedule: Q04DX002 (ip), vehicle: saline); 0 of 3 (T/C endpoint: median survival time, dose: 200.0 mg/kg/injection, schedule: Q04DX002 (ip), vehicle: saline); 0 of 3 (T/C endpoint: median survival time, dose: 400.0 mg/kg/injection, schedule: Q04DX002 (ip), vehicle: saline).
As to `CCCC(=O)O`, the survivor count (T/C endpoint: mean survival time, dose: 400.0 mg/kg/injection, schedule: Q01DX009 (ip), vehicle: saline) was 0 of 10 and 1 of 6.
In the case of `COc1ccc(C(=O)C[P+](c2ccccc2)(c2ccccc2)c2ccccc2)cc1`, the survivor count by setting is: under setting [6], 3 of 6; under setting [2], 1 of 6; under setting [3], 0 of 6.
As to `NCC1CCCC1N` (configuration not stated), the survivor count is, setting by setting: under setting [6], 3 of 6; under setting [2], 2 of 6; under setting [3], 0 of 6.
`O=C(CNC(=O)Nc1cccc([N+](=O)[O-])c1)NNC(=O)Nc1ccccc1F`: the survivor count under setting [5] is 6 of 6.
Turning to `CN(C)/C=N\c1ncnc2c1ccn2C1OC(CO)C(O)C1O` (configuration not stated), the survivor count by setting is: (T/C endpoint: mean survival time, dose: 100.0 mg/kg/injection, schedule: Q01DX005 (ip), vehicle: saline) 0 of 6; (T/C endpoint: mean survival time, dose: 200.0 mg/kg/injection, schedule: Q01DX005 (ip), vehicle: saline) 0 of 6.
Regarding `CN(C)c1nc(-c2ccncc2)nc(N(C)C)n1`, the survivor count by setting is: (T/C endpoint: mean survival time, dose: 200.0 mg/kg/injection, schedule: Q04DX002 (ip), vehicle: saline with Tween-80) 0 of 3; (T/C endpoint: mean survival time, dose: 400.0 mg/kg/injection, schedule: Q04DX002 (ip), vehicle: saline with Tween-80) 0 of 3.
With `CC(C#N)(Cc1ccccc1)Nc1ccccc1` (configuration not stated), the survivor count under setting [4] is reported as 5 of 6.
On to `CCCCC(CC)CNC(=O)CI` (configuration not stated), for which the survivor count by setting is: under setting [2], 1 of 4; under setting [3], 0 of 4.
As to `C=CC[P+](c1ccccc1)(c1ccccc1)c1ccccc1`, the survivor count (T/C endpoint: mean survival time, dose: 25.0 mg/kg/injection, schedule: Q01DX001 (ip), vehicle: saline) is 1 of 3; the survivor count (T/C endpoint: mean survival time, dose: 50.0 mg/kg/injection, schedule: Q01DX001 (ip), vehicle: saline) was 0 of 3 and 1 of 3; the survivor count (T/C endpoint: mean survival time, dose: 75.0 mg/kg/injection, schedule: Q01DX001 (ip), vehicle: other) is 2 of 6; the survivor count (T/C endpoint: mean survival time, dose: 75.0 mg/kg/injection, schedule: Q01DX001 (ip), vehicle: saline) was 0 of 6; the survivor count under setting [6] is on record as 0 of 3; the survivor count under setting [7] is 2 of 6. The survivor count is 0 of 6 (T/C endpoint: mean survival time, dose: 150.0 mg/kg/injection, schedule: Q01DX001 (ip), vehicle: saline); 0 of 6 under setting [8]; 0 of 6 under setting [1].

These data come from PubChem BioAssay AID256 (DTP/NCI, 2004).
